According to patent publication US20230288411A1, “POLYPEPTIDE, MULTIMER, SOLID PHASE, MEASUREMENT METHOD FOR TEST SUBSTANCE, AND REAGENT KIT” (SYSMEX CORPORATION, priority 2020, published 2023):

Assay: Evaluation of influence of D-biotin on TSH measurement system in ELISA method
Conditions: 0, 1, 10 or 100 ng/mL D-biotin added to specimen (TSH calibrator C3); signal at 0 ng/mL taken as 100%; immobilized plate with matching biotin-labeled TSH antibody

B1: D-tamavidin (trademark) 2: avidin-like protein derived from Pleurotus cornucopiae consisting of D amino acids, 2nd to 141st amino acid sequence of SEQ ID NO: 4 (peptide, listed as Pleurotus cornucopiae)
chain: SDVQSSLTGTWYNELNSKMELTANKDGTLTGKYLSKVGDVYVPYPLSGRYNLQPPAGQGVALGWAVSWENSKIHSATTWSGQFFSESSPVILTQWLLSSSTARGDVWESTLVGNDSFTKTAPTEQQIAHAQLHCRAPRLK
modifications: D-amino acids
Question: Which “effect of D-biotin addition on TSH ELISA signal” value does the source give for B1 here?
Answer: Its value is “the effect due to the addition of D-biotin was hardly observed”.
